Assay results reported in article PMC5575663.
No constants are given. Whether binding was seen depends on the method and setting. For part of these data: Binding calls can cover weak binding; strength is not graded here. For part of these data: Binding seen in cells or lysates may run through a third protein.

B1: AtSZF1-cEYFP (protein, UniProt Q93ZS9 1-580)
chain: MCSGPKSNLCSSRTLTEIESRQKEEETMLLLEFAACDDLDSFKREVEEKGLDLDESGLWYCRRVGSKKMGLEERTPLMVAAMYGSIKVLTFIVSTGKSDVNRACGEERVTPLHCAVAGCSVNMIEVINVLLDASALVNSVDANGNQPLDVFVRVSRFVASPRRKAVELLLRGGGVGGLIDEAVEEEIKIVSKYPADASLPDINEGVYGSDEFRMYSFKVKPCSRAYSHDWTECAFVHPGENARRRDPRKYPYTCVPCPEFRKGSCPKGDSCEYAHGVFESWLHPAQYKTRLCKDETGCARKVCFFAHKREEMRPVNASTGSAVAQSPFSSLEMMPGLSPLAYSSGVSTPPVSPMANGVPSSPRNGGSWQNRVNTLTPPALQLNGGSRLKSTLSARDIDMEMEMELRLRGFGNNVEETFGSYVSSPSRNSQMGQNMNQHYPSSPVRQPPSQHGFESSAAAAVAVMKARSTAFAKRSLSFKPATQAAPQSNLSDWGSPNGKLEWGMKGEELNKMRRSVSFGIHGNNNNNAARDYRDEPDVSWVNSLVKDSTVVSERSFGMNERVRIMSWAEQMYREKEQTVV
B2: cEYFP-AtSZF1 (protein, UniProt Q93ZS9 1-580)
chain: MCSGPKSNLCSSRTLTEIESRQKEEETMLLLEFAACDDLDSFKREVEEKGLDLDESGLWYCRRVGSKKMGLEERTPLMVAAMYGSIKVLTFIVSTGKSDVNRACGEERVTPLHCAVAGCSVNMIEVINVLLDASALVNSVDANGNQPLDVFVRVSRFVASPRRKAVELLLRGGGVGGLIDEAVEEEIKIVSKYPADASLPDINEGVYGSDEFRMYSFKVKPCSRAYSHDWTECAFVHPGENARRRDPRKYPYTCVPCPEFRKGSCPKGDSCEYAHGVFESWLHPAQYKTRLCKDETGCARKVCFFAHKREEMRPVNASTGSAVAQSPFSSLEMMPGLSPLAYSSGVSTPPVSPMANGVPSSPRNGGSWQNRVNTLTPPALQLNGGSRLKSTLSARDIDMEMEMELRLRGFGNNVEETFGSYVSSPSRNSQMGQNMNQHYPSSPVRQPPSQHGFESSAAAAVAVMKARSTAFAKRSLSFKPATQAAPQSNLSDWGSPNGKLEWGMKGEELNKMRRSVSFGIHGNNNNNAARDYRDEPDVSWVNSLVKDSTVVSERSFGMNERVRIMSWAEQMYREKEQTVV
B3: AtSZF1-nEYFP (protein, UniProt Q93ZS9 1-580)
chain: MCSGPKSNLCSSRTLTEIESRQKEEETMLLLEFAACDDLDSFKREVEEKGLDLDESGLWYCRRVGSKKMGLEERTPLMVAAMYGSIKVLTFIVSTGKSDVNRACGEERVTPLHCAVAGCSVNMIEVINVLLDASALVNSVDANGNQPLDVFVRVSRFVASPRRKAVELLLRGGGVGGLIDEAVEEEIKIVSKYPADASLPDINEGVYGSDEFRMYSFKVKPCSRAYSHDWTECAFVHPGENARRRDPRKYPYTCVPCPEFRKGSCPKGDSCEYAHGVFESWLHPAQYKTRLCKDETGCARKVCFFAHKREEMRPVNASTGSAVAQSPFSSLEMMPGLSPLAYSSGVSTPPVSPMANGVPSSPRNGGSWQNRVNTLTPPALQLNGGSRLKSTLSARDIDMEMEMELRLRGFGNNVEETFGSYVSSPSRNSQMGQNMNQHYPSSPVRQPPSQHGFESSAAAAVAVMKARSTAFAKRSLSFKPATQAAPQSNLSDWGSPNGKLEWGMKGEELNKMRRSVSFGIHGNNNNNAARDYRDEPDVSWVNSLVKDSTVVSERSFGMNERVRIMSWAEQMYREKEQTVV
B4: nEYFP-AtSZF1 (protein, UniProt Q93ZS9 1-580)
chain: MCSGPKSNLCSSRTLTEIESRQKEEETMLLLEFAACDDLDSFKREVEEKGLDLDESGLWYCRRVGSKKMGLEERTPLMVAAMYGSIKVLTFIVSTGKSDVNRACGEERVTPLHCAVAGCSVNMIEVINVLLDASALVNSVDANGNQPLDVFVRVSRFVASPRRKAVELLLRGGGVGGLIDEAVEEEIKIVSKYPADASLPDINEGVYGSDEFRMYSFKVKPCSRAYSHDWTECAFVHPGENARRRDPRKYPYTCVPCPEFRKGSCPKGDSCEYAHGVFESWLHPAQYKTRLCKDETGCARKVCFFAHKREEMRPVNASTGSAVAQSPFSSLEMMPGLSPLAYSSGVSTPPVSPMANGVPSSPRNGGSWQNRVNTLTPPALQLNGGSRLKSTLSARDIDMEMEMELRLRGFGNNVEETFGSYVSSPSRNSQMGQNMNQHYPSSPVRQPPSQHGFESSAAAAVAVMKARSTAFAKRSLSFKPATQAAPQSNLSDWGSPNGKLEWGMKGEELNKMRRSVSFGIHGNNNNNAARDYRDEPDVSWVNSLVKDSTVVSERSFGMNERVRIMSWAEQMYREKEQTVV

Experiments:
[1] = target: BD-CpCZF1 (Chimonanthus praecox (wintersweet)); assay: two-hybrid; Matchmaker Gold Yeast Two-Hybrid System (Clontech), GAL4 system; BD and AD constructs co-transformed into yeast strain Y2HGold; DDO/X plates for co-transformation, QDO/X/A selective medium for interaction (growth and blue colour)
[2] = target: CpCZF1-nEYFP (Chimonanthus praecox (wintersweet)); assay: split reporter; YFP BiFC; nEYFP (aa 1-174) and cEYFP (175-239) fusions co-infiltrated by Agrobacterium GV3101 (OD600 = 0.5, mixed equally) into lower epidermal cells of tobacco leaves; 36 h in the dark at 22 °C; confocal microscopy
[3] = target: nEYFP-CpCZF1 (Chimonanthus praecox (wintersweet)); assay: as above
[4] = target: CpCZF1-cEYFP (Chimonanthus praecox (wintersweet)); assay: as above
[5] = target: cEYFP-CpCZF1 (Chimonanthus praecox (wintersweet)); assay: as above

Row | Molecule | binding [1] | binding [2] | binding [3] | binding [4] | binding [5]
1 | AD-CpCZF2 (from UniProt A0A1U9YF98) | binds |  |  |  | 
2 | B1 |  | no binding | no binding |  | 
3 | B2 |  | no binding | no binding |  | 
4 | B3 |  |  |  | no binding | no binding
5 | B4 |  |  |  | no binding | no binding
